# Source: the supplement of paper PMC8728848
# The list shows a part of the results.
# B1: AT1G77380(17) (Arabidopsis thaliana), Q39134 (protein)
# chain: MVQNHQTVLAVDMPQTGGSKYLDDDGKNKRTGSVWTASAHIITAVIGSGVLSLAWATAQLGWLAGPVVMLLFSAVTYFTSSLLAACYRSGDPISGKRNYTYMDAVRSNLGGVKVTLCGIVQYLNIFGVAIGYTIASAISMMAIKRSNCFHKSGGKDPCHMNSNPYMIAFGLVQILFSQIPDFDQLWWLSILAAVMSFTYSSAGLALGIAQVVVNGKVKGSLTGISIGAVTETQKIWRTFQALGDIAFAYSYSIILIEIQDTVKSPPSEEKTMKKATLVSVSVTTMFYMLCGCMGYAAFGDLSPGNLLTGFGFYNPYWLLDIANAAIVIHLIGAYQVYCQPLFAFIEKQASIQFPDSEFIAKDIKIPIPGFKPLRLNVFRLIWRTVFVIITTVISMLLPFFNDVVGLLGALGFWPLTVYFPVEMYIAQKKIPRWSTRWVCLQVFSLGCLVVSIAAAAGSIAGVLLDLKSYKPFRSEY
# How the values were obtained:
# Test in all cases: glycan array binding signal (z-score within array); higher = stronger binding
# Conditions in all cases: glycan notation: IUPAC condensed, linker removed
# [1] = biological target: Gal(b1-3)[Fuc(a1-4)]GlcNAc(b1-3)Gal(b1-4)[Fuc(a1-3)]GlcNAc
# Method in brief: (§1)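 From the Consortium for Functional Glycomics database, 3228 arrays were curated, keeping only those whose protein sequence was available. Binding is given as a within-array Z-score averaged across arrays sharing a protein sequence and across linkers. Negative Z-scores can be read as non-binding.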
# [2] = biological target: Gal(b1-3)[Fuc(a1-4)]GlcNAc(b1-6)GalNAc
# Method in brief: as §1
# [3] = biological target: Gal(b1-3)[GlcNAc(b1-6)]GalNAc
# Method in brief: as §1
# [4] = biological target: Gal(b1-3)[Neu5Ac(a2-6)]GalNAc
# Method in brief: as §1
# [5] = biological target: Gal(b1-3)[Neu5Ac(a2-6)]GlcNAc(b1-4)Gal(b1-4)Glc
# Method in brief: as §1
# [6] = biological target: Gal(b1-3)[Neu5Ac(b2-6)]GalNAc
# Method in brief: as §1
# [7] = biological target: Gal(b1-4)Gal
# Method in brief: as §1
# [8] = biological target: Gal(b1-4)GalNAc(a1-3)[Fuc(a1-2)]Gal(b1-4)GlcNAc
# Method in brief: as §1
# [9] = biological target: Gal(b1-4)GalNAc(b1-3)[Fuc(a1-2)]Gal(b1-4)GlcNAc
# Method in brief: as §1
# [10] = biological target: Gal(b1-4)Glc
# Method in brief: as §1
# [11] = biological target: Gal(b1-4)Glc6S
# Method in brief: as §1
# [12] = biological target: Gal(b1-4)GlcNAc
# Method in brief: as §1
# [13] = biological target: Gal(b1-4)GlcNAc(a1-6)Gal(b1-4)GlcNAc
# Method in brief: as §1
# [14] = biological target: Gal(b1-4)GlcNAc(b1-2)Man
# Method in brief: as §1
# [15] = biological target: Gal(b1-4)GlcNAc(b1-2)Man(a1-3)Man(b1-4)GlcNAc(b1-4)GlcNAc
# Method in brief: as §1
# [16] = biological target: Gal(b1-4)GlcNAc(b1-2)Man(a1-3)[Gal(b1-4)GlcNAc(b1-2)Man(a1-6)]Man(b1-4)GlcNAc(b1-4)GlcNAc
# Method in brief: as §1
# [17] = biological target: Gal(b1-4)GlcNAc(b1-2)Man(a1-3)[Gal(b1-4)GlcNAc(b1-2)Man(a1-6)]Man(b1-4)GlcNAc(b1-4)[Fuc(a1-6)]GlcNAc
# Method in brief: as §1
# [18] = biological target: Gal(b1-4)GlcNAc(b1-2)Man(a1-3)[Gal(b1-4)GlcNAc(b1-2)Man(a1-6)][Gal(b1-4)GlcNAc(b1-4)]Man(b1-4)GlcNAc(b1-4)[Fuc(a1-6)]GlcNAc
# Method in brief: as §1
# [19] = biological target: Gal(b1-4)GlcNAc(b1-2)Man(a1-3)[Gal(b1-4)GlcNAc(b1-2)Man(a1-6)][GlcNAc(b1-4)]Man(b1-4)GlcNAc(b1-4)[Fuc(a1-6)]GlcNAc
# Method in brief: as §1
# [20] = biological target: Gal(b1-4)GlcNAc(b1-2)Man(a1-3)[GlcNAc(b1-2)Man(a1-6)]Man(b1-4)GlcNAc(b1-4)GlcNAc
# Method in brief: as §1
# [21] = biological target: Gal(b1-4)GlcNAc(b1-2)Man(a1-3)[GlcNAc(b1-4)][Gal(b1-4)GlcNAc(b1-2)Man(a1-6)]Man(b1-4)GlcNAc(b1-4)GlcNAc
# Method in brief: as §1
# [22] = biological target: Gal(b1-4)GlcNAc(b1-2)Man(a1-3)[Man(a1-6)]Man(b1-4)GlcNAc(b1-4)GlcNAc
# Method in brief: as §1
# [23] = biological target: Gal(b1-4)GlcNAc(b1-2)Man(a1-6)Man(b1-4)GlcNAc(b1-4)GlcNAc
# Method in brief: as §1
# [24] = biological target: Gal(b1-4)GlcNAc(b1-2)Man(a1-6)[GlcNAc(b1-2)Man(a1-3)]Man(b1-4)GlcNAc(b1-4)GlcNAc
# Method in brief: as §1
# [25] = biological target: Gal(b1-4)GlcNAc(b1-2)Man(a1-6)[Man(a1-3)]Man(b1-4)GlcNAc(b1-4)GlcNAc
# Method in brief: as §1
# [26] = biological target: Gal(b1-4)GlcNAc(b1-2)[Gal(b1-4)GlcNAc(b1-4)]Man(a1-3)[Gal(b1-4)GlcNAc(b1-2)Man(a1-6)]Man(b1-4)GlcNAc(b1-4)GlcNAc
# Method in brief: as §1
# [27] = biological target: Gal(b1-4)GlcNAc(b1-2)[Gal(b1-4)GlcNAc(b1-4)]Man(a1-3)[Gal(b1-4)GlcNAc(b1-2)[Gal(b1-4)GlcNAc(b1-6)]Man(a1-6)]Man(b1-4)GlcNAc(b1-4)GlcNAc
# Method in brief: as §1
# [28] = biological target: Gal(b1-4)GlcNAc(b1-2)[Gal(b1-4)GlcNAc(b1-4)]Man(a1-3)[GlcNAc(b1-4)][Gal(b1-4)GlcNAc(b1-2)Man(a1-6)]Man(b1-4)GlcNAc(b1-4)GlcNAc
# Method in brief: as §1
# [29] = biological target: Gal(b1-4)GlcNAc(b1-2)[Gal(b1-4)GlcNAc(b1-4)]Man(a1-3)[GlcNAc(b1-4)][Gal(b1-4)GlcNAc(b1-2)[Gal(b1-4)GlcNAc(b1-6)]Man(a1-6)]Man(b1-4)GlcNAc(b1-4)GlcNAc
# Method in brief: as §1
# [30] = biological target: Gal(b1-4)GlcNAc(b1-2)[Gal(b1-4)GlcNAc(b1-6)]Man(a1-6)[Gal(b1-4)GlcNAc(b1-2)Man(a1-3)]Man(b1-4)GlcNAc(b1-4)GlcNAc
# Method in brief: as §1
# [31] = biological target: Gal(b1-4)GlcNAc(b1-2)[Gal(b1-4)GlcNAc(b1-6)]Man(a1-6)[Gal(b1-4)GlcNAc(b1-2)Man(a1-3)]Man(b1-4)GlcNAc(b1-4)[Fuc(a1-6)]GlcNAc
# Method in brief: as §1
# [32] = biological target: Gal(b1-4)GlcNAc(b1-2)[Gal(b1-4)GlcNAc(b1-6)]Man(a1-6)[GlcNAc(b1-4)][Gal(b1-4)GlcNAc(b1-2)Man(a1-3)]Man(b1-4)GlcNAc(b1-4)GlcNAc
# Method in brief: as §1
# [33] = biological target: Gal(b1-4)GlcNAc(b1-2)[Gal(b1-4)GlcNAc(b1-6)]Man(a1-6)[GlcNAc(b1-4)][Gal(b1-4)GlcNAc(b1-2)[Gal(b1-4)GlcNAc(b1-4)]Man(a1-3)]Man(b1-4)GlcNAc(b1-4)[Fuc(a1-6)]GlcNAc
# Method in brief: as §1
# [34] = biological target: Gal(b1-4)GlcNAc(b1-3)Gal(b1-3)GalNAc
# Method in brief: as §1
# [35] = biological target: Gal(b1-4)GlcNAc(b1-3)Gal(b1-3)GlcNAc
# Method in brief: as §1
# [36] = biological target: Gal(b1-4)GlcNAc(b1-3)Gal(b1-4)Glc
# Method in brief: as §1
# [37] = biological target: Gal(b1-4)GlcNAc(b1-3)Gal(b1-4)GlcNAc
# Method in brief: as §1
# [38] = biological target: Gal(b1-4)GlcNAc(b1-3)Gal(b1-4)GlcNAc(b1-2)Man(a1-3)[Gal(b1-4)GlcNAc(b1-3)Gal(b1-4)GlcNAc(b1-2)Man(a1-6)]Man(b1-4)GlcNAc(b1-4)GlcNAc
# Method in brief: as §1
binder,measurement,setting,value
B1,glycan array binding signal (z-score),[1],-0.402
same,glycan array binding signal (z-score),[2],0.07
same,glycan array binding signal (z-score),[3],-0.619
same,glycan array binding signal (z-score),[4],-0.4
same,glycan array binding signal (z-score),[5],-0.793
same,glycan array binding signal (z-score),[6],0.022
same,glycan array binding signal (z-score),[7],0.294
same,glycan array binding signal (z-score),[8],-0.627
same,glycan array binding signal (z-score),[9],-0.719
same,glycan array binding signal (z-score),[10],0.29
same,glycan array binding signal (z-score),[11],-0.23
same,glycan array binding signal (z-score),[12],-0.639
same,glycan array binding signal (z-score),[13],2.75
same,glycan array binding signal (z-score),[14],1.05
same,glycan array binding signal (z-score),[15],-0.118
same,glycan array binding signal (z-score),[16],-0.144
same,glycan array binding signal (z-score),[17],-0.273
same,glycan array binding signal (z-score),[18],-0.548
same,glycan array binding signal (z-score),[19],-0.277
same,glycan array binding signal (z-score),[20],-0.757
same,glycan array binding signal (z-score),[21],-0.793
same,glycan array binding signal (z-score),[22],-0.935
same,glycan array binding signal (z-score),[23],1.06
same,glycan array binding signal (z-score),[24],-0.742
same,glycan array binding signal (z-score),[25],1.66
same,glycan array binding signal (z-score),[26],2.4
same,glycan array binding signal (z-score),[27],-0.811
same,glycan array binding signal (z-score),[28],-0.107
same,glycan array binding signal (z-score),[29],-0.498
same,glycan array binding signal (z-score),[30],1.34
same,glycan array binding signal (z-score),[31],1.11
same,glycan array binding signal (z-score),[32],-0.609
same,glycan array binding signal (z-score),[33],0.317
same,glycan array binding signal (z-score),[34],-0.234
same,glycan array binding signal (z-score),[35],-0.381
same,glycan array binding signal (z-score),[36],-0.114
same,glycan array binding signal (z-score),[37],1.24
same,glycan array binding signal (z-score),[38],-0.802

# Reformatted bar-delimited: part of the list above
binder | measurement | setting | value
B1 | glycan array binding signal (z-score) | [9] | -0.719
same | glycan array binding signal (z-score) | [11] | -0.23
same | glycan array binding signal (z-score) | [17] | -0.273
